Primary screen of a compound library

Data taken from ChEMBL document CHEMBL3988442, “University of Dundee, Small-Polar-MMV Screening Library” (2021).

Mtb growth Cornell: 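Whole-cell assay for inhibitors of Mycobacterium tuberculosis growth, labelled Cornell in the record; the read-out is not stated. The concentration is filed as 10 mM, unlikely as a test dose, so the dose is not known. The record gives no direction; compounds strong in two other growth screens of this library score well above the rest, so higher reads as stronger inhibition. Size under these conditions: about 53,000 compounds, about 900 of them at 50% or above in at least one test.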
Mtb heat-shock: 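Assay on Mycobacterium tuberculosis, filed only as a heat shock assay from Cornell; the read-out is not stated. The concentration is filed as 10 mM, unlikely as a test dose, so the dose is not known. Higher reads as stronger inhibition (inferred: compounds with an IC50 in retests scored well above the rest). Size under these conditions: about 69,000 compounds, about 930 of them at 50% or above in at least one test.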

Each number is a percent effect as filed. How 0% and 100% were set is not recorded. Most values in the screen are low, and negative values occur. The compounds are a random part of those screened.

{"compound": "O=c1n(Cc2cccc(F)c2)nc2ncccn12", "Mtb growth Cornell": -42.33, "Mtb heat-shock": -1.703}
{"compound": "Cc1cc(NCc2ccco2)nc2[nH]nc(N)c12", "Mtb growth Cornell": 73.02, "Mtb heat-shock": -5.616}
{"compound": "Cc1cnn(CC2CCCCN2C(=O)c2ccc3[nH]c(=O)[nH]c3c2)c1", "stereo": "centres unmarked", "Mtb heat-shock": -7.116}
{"compound": "CSC(C)C(=O)N1CCCN(Cc2nccn2C)CC1", "stereo": "centres unmarked", "Mtb growth Cornell": -38.31, "Mtb heat-shock": 3.709}
{"compound": "Cc1csc(N2CCN(Cc3ccn(C)c(=O)c3)CC2)n1", "Mtb heat-shock": -12.43}
{"compound": "O=C(Cc1ccccn1)NCC1OCCc2cn(CC3CC3)nc21.O=C(O)C(F)(F)F", "stereo": "centres unmarked", "Mtb growth Cornell": -2.632, "Mtb heat-shock": -2.229}
{"compound": "CCc1ccc2nc(C)cc(C(=O)NC3CCC(=O)N(C)C3)c2c1", "stereo": "centres unmarked", "Mtb heat-shock": -195.1}
{"compound": "CC(C)C1CN(c2ncccc2Cl)CCC(=O)N1Cc1ccc(F)cc1", "stereo": "centres unmarked", "Mtb growth Cornell": -3.091, "Mtb heat-shock": -10.51}
{"compound": "O=C(Nc1nnc(N2CCCCC2)[nH]1)c1cccs1", "Mtb growth Cornell": 14.26, "Mtb heat-shock": -1.513}
{"compound": "CCSc1cc(C(=O)NCCC(=O)N(C)C)ccn1", "Mtb growth Cornell": 20.67, "Mtb heat-shock": 1.522}
{"compound": "CNC(=O)CCCNCc1c(C)nn(CC(C)C)c1N(C)C", "Mtb growth Cornell": 37.18, "Mtb heat-shock": 3.05}
{"compound": "COc1ncccc1CNC(=O)NCc1ccco1", "Mtb growth Cornell": -24.85, "Mtb heat-shock": -16.21}
{"compound": "COCCNC(=O)C(C)N1CCN(C)CC1.O=C(O)C(=O)O", "stereo": "centres unmarked", "Mtb growth Cornell": -3.876, "Mtb heat-shock": 1.358}
{"compound": "Nc1ncc(-c2cccc(NC(=O)[C@@H]3CCCCN3)c2)cn1", "Mtb growth Cornell": -12.62, "Mtb heat-shock": -20}
{"compound": "Cc1ncc(CC(=O)N2CCCC(COc3ccccc3F)C2)c(=O)[nH]1", "stereo": "centres unmarked", "Mtb growth Cornell": -4.612, "Mtb heat-shock": -31.06}
{"compound": "COc1ccc(N(c2ccc(C)cc2)c2ccc(C(=O)O)s2)cc1", "Mtb growth Cornell": 2.836, "Mtb heat-shock": 6.774}
{"compound": "CCc1nc(C#N)c(N2CCC(c3nc(-c4ccccc4)no3)CC2)o1", "Mtb growth Cornell": 9.989, "Mtb heat-shock": -0.4533}
{"compound": "O=C(CCOc1ccccc1)N1CCC(Nc2cccnn2)CC1", "Mtb growth Cornell": 29.68, "Mtb heat-shock": -30.83}
{"compound": "CC[C@@]1(O)CCN(C(=O)c2ccc(CN3CCCCCC3)cc2)C[C@H]1O", "Mtb growth Cornell": 10.13, "Mtb heat-shock": -3.139}
{"compound": "CCn1cnnc1CNC(=O)N(C)Cc1ccc(Cl)cc1Cl", "Mtb growth Cornell": -22.31, "Mtb heat-shock": -8.777}
{"compound": "CNC(=O)C1(CCCc2ccncc2)CCCN1", "stereo": "centres unmarked", "Mtb growth Cornell": 11.51, "Mtb heat-shock": 10.4}
{"compound": "CS(=O)(=O)N1CCC(C(=O)N2CCN(Cc3cccc(Cl)c3)CC2)CC1", "Mtb growth Cornell": 7.574, "Mtb heat-shock": 4.378}
{"compound": "COc1ccc(CCC(=O)Nc2ccc3ncn(C)c(=O)c3c2)cc1", "Mtb growth Cornell": 38.33, "Mtb heat-shock": -1.055}
{"compound": "O=C(O)C(F)(F)F.[H][C@@]12CCN(C(=O)c3cccn3C)[C@@]1([H])CC(=O)N2CCN1CCOCC1", "Mtb growth Cornell": -15.9, "Mtb heat-shock": -25.84}
{"compound": "N#Cc1ccc(C(=O)N2CCn3c(Cn4cccn4)cnc3C2)cc1.O=C(O)C(F)(F)F", "Mtb growth Cornell": 17.19, "Mtb heat-shock": -4.558}
{"compound": "COCCn1nc(C(=O)N(C)Cc2cnn(C)c2)ccc1=O", "Mtb growth Cornell": -18.87, "Mtb heat-shock": 0.8504}
{"compound": "Cn1cc(C2CC(=O)NC23CCN(Cc2cccc(F)c2)CC3)cn1.O=C(O)C(F)(F)F", "stereo": "centres unmarked", "Mtb growth Cornell": 21.07, "Mtb heat-shock": -23.11}
{"compound": "Cc1nc(CN(C)C2CCN(CCC(=O)N3CCOCC3)C2)no1", "stereo": "centres unmarked", "Mtb growth Cornell": -14.46, "Mtb heat-shock": -23.04}

Some entries from above, unchanged:

* Cc1ncc(CC(=O)N2CCCC(COc3ccccc3F)C2)c(=O)[nH]1 (centres unmarked) : Mtb growth Cornell: -4.612%; Mtb heat-shock: -31.06%
* CC(C)C1CN(c2ncccc2Cl)CCC(=O)N1Cc1ccc(F)cc1 (centres unmarked) : Mtb growth Cornell: -3.091%; Mtb heat-shock: -10.51%